PubChem BioAssay AID602196, INSERM – 2012
In all, the deposit lists about 23,000 reagents; this is a random part of them. Over the whole deposit, 455 (2%) were called active. 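Active includes both protection and sensitisation; some change values fall well beyond the stated -50 to +50 range.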 Further read-outs or replicates are left out here. No sequences are given here. The record does not give: the amount of reagent.

Purpose: 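Modifiers of cisplatin sensitivity in A549 cells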
Cell system: human A549 lung cancer cells
Knock-down reagent: siRNA pair against human genes
Timing: 48 h transfection before cisplatin; time from cisplatin to read-out not stated
Conditions: cisplatin at a dose killing half of control-siRNA cells; exact dose and duration not given
Measurement: 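Cisplatin cell death as a shift from the 50% death seen with control siRNA; siRNAs toxic or growth-blocking alone scored 0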
Scale: two-siRNA summed score (-2 to +2): higher = both siRNAs protect from cisplatin killing; -2 means both sensitise
Rule for the call: 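siRNAs harmful alone (LDH or WST-1) get 0; others get +1 for less and -1 for more cisplatin killing; genes are active when the two siRNAs give the same sign, summing to ±2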
Meaning of the calls: active = both siRNAs shift cisplatin killing the same way; inactive = no consistent shift, or siRNA harmful alone

gene symbol	two-siRNA summed score (-2 to +2)	call
FBXL22	0	inactive
MAPK1	0	inactive
GM2A	0	inactive
USP45	0	inactive
CTSV	0	inactive
ZC3H4	0	inactive
SAT1	-1	inactive
CEP55	0	inactive
EPCIP	-1	inactive
GTF2F1	0	inactive
OR9G1	1	inactive
LHB	-1	inactive
HECTD1	-1	inactive
GALNT1	-2	active
PRDM13	-1	inactive
PTMA	0	inactive
LOC389150	1	inactive
EPCAM	1	inactive
GTPBP1	0	inactive

In a second layout: 3 of the entries above.
| gene symbol | two-siRNA summed score (-2 to +2) | call |
| --- | --- | --- |
| EPCIP | -1 | inactive |
| GTF2F1 | 0 | inactive |
| OR9G1 | 1 | inactive |

The results go on.
gene symbol	two-siRNA summed score (-2 to +2)	call
CXCL16	1	inactive
RNF146	-1	inactive
KDM4C	-1	inactive
CLNS1A	1	inactive
METTL17	0	inactive
LOC389029	-1	inactive
LOC391581	0	inactive
CTCF	0	inactive
GNLY	0	inactive
ZBTB7B	0	inactive
GOLGA6EP	0	inactive
OVOL1	-1	inactive
LOC340109	1	inactive
UBXN8	0	inactive
CABYR	1	inactive
BBOF1	0	inactive
ST6GALNAC3	1	inactive
ATP6V1B2	0	inactive
SLC22A11	0	inactive
LIN28B	0	inactive
PAPOLB	0	inactive
PNMA5	0	inactive
NT5C1A	-1	inactive
CSNK1G3	1	inactive
RPL27A	0	inactive
LOC388279	0	inactive
ABCA10	0	inactive
UTP15	1	inactive
IQCH	0	inactive
SCNN1D	-1	inactive
ASCL3	0	inactive
ZNF474	0	inactive
LOC283816	0	inactive
LOC286561	1	inactive
LOC401553	0	inactive
KPNA6	0	inactive
JAM3	1	inactive
PATZ1	0	inactive
